One experiment concerns the target HDAC1 (UniProt Q13547). Nature of the experiment: co-IP; co-immunoprecipitation of TonEBP with HDAC1; data not shown, no details given.
Experiment [1] addresses FLAG-tagged TonEBP (tonicity-responsive enhancer binding protein), wild type, c-form (human) (UniProt O94916). Nature of the experiment: co-IP; coimmunoprecipitation analysis of TonEBP dimerisation, WT against DIM; data not shown, no details given.

By UniProt entry, the sequences of proteins in these tests, tags left out.
UniProt Q13547: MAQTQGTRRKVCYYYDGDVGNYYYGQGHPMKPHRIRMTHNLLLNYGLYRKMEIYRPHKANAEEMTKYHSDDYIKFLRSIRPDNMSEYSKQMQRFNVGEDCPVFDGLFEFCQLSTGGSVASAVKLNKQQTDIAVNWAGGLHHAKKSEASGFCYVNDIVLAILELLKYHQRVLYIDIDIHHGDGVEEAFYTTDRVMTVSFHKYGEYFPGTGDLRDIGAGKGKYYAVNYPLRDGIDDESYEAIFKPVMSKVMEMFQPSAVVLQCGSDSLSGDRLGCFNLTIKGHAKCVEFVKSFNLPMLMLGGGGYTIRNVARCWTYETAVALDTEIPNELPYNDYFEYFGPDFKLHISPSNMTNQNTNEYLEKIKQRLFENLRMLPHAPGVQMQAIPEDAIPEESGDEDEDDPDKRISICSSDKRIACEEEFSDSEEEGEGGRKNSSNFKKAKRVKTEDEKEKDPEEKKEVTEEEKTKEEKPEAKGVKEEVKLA
UniProt O94916: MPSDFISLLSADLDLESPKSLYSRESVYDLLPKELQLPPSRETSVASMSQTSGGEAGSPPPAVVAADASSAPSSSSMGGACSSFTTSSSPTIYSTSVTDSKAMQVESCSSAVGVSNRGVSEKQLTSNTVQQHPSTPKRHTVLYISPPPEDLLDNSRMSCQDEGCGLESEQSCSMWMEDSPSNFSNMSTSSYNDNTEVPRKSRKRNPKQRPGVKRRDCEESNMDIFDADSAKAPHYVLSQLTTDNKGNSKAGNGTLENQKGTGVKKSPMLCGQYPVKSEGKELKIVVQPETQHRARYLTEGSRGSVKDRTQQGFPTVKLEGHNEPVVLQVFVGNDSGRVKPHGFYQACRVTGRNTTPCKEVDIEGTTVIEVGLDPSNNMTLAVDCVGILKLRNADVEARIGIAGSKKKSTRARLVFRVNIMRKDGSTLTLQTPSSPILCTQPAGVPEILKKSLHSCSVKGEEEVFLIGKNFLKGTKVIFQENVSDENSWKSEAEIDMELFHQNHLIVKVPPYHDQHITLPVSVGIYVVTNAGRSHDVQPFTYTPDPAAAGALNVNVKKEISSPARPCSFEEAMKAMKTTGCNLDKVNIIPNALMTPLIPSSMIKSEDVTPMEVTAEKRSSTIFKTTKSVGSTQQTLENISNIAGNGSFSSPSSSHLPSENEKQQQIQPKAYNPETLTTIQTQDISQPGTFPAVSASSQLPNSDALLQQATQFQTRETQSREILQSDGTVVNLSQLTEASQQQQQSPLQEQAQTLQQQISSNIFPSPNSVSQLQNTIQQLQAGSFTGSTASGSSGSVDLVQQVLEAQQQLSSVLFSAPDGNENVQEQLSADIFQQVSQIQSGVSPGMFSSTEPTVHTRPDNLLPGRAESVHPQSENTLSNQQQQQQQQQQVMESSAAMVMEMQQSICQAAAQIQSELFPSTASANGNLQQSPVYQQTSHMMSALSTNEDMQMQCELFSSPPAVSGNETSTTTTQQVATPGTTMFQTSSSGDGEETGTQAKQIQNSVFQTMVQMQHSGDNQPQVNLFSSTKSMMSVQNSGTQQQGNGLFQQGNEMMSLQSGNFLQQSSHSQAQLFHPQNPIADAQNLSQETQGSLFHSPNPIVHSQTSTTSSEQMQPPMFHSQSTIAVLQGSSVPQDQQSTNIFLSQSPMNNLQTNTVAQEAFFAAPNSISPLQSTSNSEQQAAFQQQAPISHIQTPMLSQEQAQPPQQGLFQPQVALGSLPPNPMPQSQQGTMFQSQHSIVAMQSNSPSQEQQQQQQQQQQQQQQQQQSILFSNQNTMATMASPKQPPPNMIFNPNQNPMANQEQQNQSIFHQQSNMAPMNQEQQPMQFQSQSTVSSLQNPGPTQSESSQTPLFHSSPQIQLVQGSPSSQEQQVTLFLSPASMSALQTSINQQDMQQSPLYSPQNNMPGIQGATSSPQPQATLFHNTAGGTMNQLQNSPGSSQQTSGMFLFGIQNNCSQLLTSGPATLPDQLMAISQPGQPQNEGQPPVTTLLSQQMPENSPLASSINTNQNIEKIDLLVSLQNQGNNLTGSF

Results are given in words; binding and its absence hold for the method and conditions named. Binding seen in cells or lysates may run through a third protein. Some entries that bind do so weakly or less than the wild type.

In the case of “FLAG-tagged TonEBP (tonicity-responsive enhancer binding protein), wild type, c-form (from UniProt O94916 1-1531)”, the binding entry (with HDAC1; in experiment [1]) was “binds” each time.

Values taken from PMC4063170.
